The supplement of paper PMC6411743
± gives the standard deviation of the averaged measurements. Only a part is listed here, and it is no random draw.

Sequences of proteins named here, by UniProt entry; tags and fusion partners are left off. A change or cut given only in a name is not applied to a line headed by its entry.
UniProt P22059, whole entry: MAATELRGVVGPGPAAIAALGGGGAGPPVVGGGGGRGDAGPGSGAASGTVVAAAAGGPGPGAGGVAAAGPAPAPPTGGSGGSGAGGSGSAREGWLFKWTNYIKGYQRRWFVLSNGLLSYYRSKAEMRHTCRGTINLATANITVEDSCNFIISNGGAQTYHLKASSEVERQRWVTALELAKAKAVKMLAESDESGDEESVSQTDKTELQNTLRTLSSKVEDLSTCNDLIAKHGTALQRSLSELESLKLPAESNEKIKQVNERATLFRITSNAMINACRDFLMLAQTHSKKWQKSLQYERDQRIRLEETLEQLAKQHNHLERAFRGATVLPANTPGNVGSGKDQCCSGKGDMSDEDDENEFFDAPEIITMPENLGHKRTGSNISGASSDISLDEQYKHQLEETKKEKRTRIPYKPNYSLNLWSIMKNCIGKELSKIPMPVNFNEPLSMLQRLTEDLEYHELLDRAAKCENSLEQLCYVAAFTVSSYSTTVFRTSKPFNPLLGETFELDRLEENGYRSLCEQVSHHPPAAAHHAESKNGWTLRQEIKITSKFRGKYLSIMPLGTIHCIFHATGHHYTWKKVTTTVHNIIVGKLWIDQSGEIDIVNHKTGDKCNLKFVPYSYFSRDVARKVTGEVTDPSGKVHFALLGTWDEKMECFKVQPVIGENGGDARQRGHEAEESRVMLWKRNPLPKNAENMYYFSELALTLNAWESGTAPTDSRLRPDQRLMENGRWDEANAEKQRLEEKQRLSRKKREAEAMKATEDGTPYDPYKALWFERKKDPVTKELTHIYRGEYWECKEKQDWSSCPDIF
UniProt P30043: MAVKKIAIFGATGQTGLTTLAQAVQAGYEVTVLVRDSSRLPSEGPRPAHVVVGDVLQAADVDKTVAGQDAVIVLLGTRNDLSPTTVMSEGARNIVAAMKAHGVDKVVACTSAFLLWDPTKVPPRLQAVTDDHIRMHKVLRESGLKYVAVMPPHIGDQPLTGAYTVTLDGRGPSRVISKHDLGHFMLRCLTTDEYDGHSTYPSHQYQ
UniProt P23381: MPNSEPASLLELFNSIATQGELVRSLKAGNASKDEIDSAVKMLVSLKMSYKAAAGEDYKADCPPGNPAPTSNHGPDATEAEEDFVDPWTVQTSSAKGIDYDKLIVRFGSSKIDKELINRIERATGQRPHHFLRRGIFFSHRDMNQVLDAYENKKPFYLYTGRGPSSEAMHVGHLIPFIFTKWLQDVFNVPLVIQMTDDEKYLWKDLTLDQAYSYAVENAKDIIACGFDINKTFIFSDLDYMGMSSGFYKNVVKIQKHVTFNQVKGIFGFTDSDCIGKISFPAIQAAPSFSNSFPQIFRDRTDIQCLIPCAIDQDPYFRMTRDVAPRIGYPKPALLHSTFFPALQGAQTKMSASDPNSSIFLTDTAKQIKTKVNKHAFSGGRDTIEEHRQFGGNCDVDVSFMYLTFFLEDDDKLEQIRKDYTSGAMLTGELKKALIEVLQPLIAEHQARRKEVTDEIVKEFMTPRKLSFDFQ
UniProt P31150: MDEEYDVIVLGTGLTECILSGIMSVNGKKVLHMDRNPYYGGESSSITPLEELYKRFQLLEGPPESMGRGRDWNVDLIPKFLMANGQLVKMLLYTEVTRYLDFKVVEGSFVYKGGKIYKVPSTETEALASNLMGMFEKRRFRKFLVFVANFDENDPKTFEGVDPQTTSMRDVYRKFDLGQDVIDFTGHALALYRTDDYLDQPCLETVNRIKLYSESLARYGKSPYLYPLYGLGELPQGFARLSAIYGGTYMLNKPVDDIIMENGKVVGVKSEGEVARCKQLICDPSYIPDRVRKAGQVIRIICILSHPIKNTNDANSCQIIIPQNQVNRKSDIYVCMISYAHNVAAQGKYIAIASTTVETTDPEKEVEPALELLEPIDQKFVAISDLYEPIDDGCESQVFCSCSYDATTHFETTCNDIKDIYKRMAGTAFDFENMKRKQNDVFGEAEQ
UniProt P20963, whole entry: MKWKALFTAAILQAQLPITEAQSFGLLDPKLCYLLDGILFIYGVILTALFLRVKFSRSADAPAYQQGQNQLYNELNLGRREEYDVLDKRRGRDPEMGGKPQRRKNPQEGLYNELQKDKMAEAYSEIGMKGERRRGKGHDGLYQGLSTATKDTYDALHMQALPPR
UniProt P21953: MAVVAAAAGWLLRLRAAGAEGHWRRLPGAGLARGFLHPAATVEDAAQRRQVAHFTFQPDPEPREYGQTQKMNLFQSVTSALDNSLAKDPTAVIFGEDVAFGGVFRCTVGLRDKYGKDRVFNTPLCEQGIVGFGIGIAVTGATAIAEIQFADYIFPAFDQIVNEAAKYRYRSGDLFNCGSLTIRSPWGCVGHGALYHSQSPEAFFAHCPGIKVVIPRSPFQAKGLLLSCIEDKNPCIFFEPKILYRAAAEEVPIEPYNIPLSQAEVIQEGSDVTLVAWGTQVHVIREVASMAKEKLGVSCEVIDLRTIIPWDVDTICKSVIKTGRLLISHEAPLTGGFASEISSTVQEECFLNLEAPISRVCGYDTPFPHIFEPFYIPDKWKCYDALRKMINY
UniProt P28838: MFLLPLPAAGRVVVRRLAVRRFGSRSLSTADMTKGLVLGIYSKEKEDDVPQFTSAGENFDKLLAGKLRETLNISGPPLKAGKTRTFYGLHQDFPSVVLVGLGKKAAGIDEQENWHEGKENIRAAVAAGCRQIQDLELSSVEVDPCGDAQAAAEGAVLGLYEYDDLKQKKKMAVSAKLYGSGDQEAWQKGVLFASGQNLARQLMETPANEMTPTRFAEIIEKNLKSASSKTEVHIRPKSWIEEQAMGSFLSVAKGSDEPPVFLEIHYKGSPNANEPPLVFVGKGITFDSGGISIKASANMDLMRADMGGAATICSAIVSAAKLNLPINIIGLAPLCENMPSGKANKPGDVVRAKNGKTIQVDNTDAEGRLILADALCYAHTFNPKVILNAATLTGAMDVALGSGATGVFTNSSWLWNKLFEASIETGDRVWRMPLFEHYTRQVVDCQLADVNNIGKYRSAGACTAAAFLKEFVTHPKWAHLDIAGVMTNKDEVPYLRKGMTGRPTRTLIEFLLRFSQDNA
UniProt P24666: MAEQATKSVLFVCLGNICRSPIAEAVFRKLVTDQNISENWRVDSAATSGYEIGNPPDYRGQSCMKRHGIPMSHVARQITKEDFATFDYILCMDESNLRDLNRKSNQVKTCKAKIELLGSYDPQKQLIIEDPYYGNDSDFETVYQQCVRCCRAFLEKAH
UniProt P31948, whole entry, looked up: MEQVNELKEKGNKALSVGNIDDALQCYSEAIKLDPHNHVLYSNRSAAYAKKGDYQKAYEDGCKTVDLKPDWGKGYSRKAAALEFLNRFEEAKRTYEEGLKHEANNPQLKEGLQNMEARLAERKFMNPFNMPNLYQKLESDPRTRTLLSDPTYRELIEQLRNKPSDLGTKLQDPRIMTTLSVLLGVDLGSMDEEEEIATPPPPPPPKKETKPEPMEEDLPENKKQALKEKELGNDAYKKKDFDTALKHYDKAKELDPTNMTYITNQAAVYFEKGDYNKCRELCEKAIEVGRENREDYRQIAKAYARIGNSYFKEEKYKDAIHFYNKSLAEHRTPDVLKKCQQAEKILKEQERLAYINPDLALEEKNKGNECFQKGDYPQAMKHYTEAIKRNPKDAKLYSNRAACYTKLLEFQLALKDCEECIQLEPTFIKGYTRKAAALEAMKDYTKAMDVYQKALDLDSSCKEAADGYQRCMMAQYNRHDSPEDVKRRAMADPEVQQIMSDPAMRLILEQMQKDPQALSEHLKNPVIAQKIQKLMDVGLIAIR
UniProt P17098: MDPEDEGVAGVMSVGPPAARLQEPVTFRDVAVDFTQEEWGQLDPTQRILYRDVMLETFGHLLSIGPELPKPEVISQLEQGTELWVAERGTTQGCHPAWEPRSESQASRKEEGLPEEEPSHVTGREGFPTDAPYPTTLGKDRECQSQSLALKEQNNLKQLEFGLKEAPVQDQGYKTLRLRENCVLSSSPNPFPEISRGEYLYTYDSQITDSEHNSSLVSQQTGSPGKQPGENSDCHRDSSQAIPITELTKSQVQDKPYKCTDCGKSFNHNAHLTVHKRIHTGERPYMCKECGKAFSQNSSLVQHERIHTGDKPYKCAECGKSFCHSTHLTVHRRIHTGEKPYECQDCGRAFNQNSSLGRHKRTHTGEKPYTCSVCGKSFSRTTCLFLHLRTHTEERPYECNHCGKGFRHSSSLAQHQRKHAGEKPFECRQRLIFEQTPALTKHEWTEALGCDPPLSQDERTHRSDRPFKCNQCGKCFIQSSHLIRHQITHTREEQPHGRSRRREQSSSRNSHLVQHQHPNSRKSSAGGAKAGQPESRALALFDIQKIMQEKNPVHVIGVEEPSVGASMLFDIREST
UniProt P20023: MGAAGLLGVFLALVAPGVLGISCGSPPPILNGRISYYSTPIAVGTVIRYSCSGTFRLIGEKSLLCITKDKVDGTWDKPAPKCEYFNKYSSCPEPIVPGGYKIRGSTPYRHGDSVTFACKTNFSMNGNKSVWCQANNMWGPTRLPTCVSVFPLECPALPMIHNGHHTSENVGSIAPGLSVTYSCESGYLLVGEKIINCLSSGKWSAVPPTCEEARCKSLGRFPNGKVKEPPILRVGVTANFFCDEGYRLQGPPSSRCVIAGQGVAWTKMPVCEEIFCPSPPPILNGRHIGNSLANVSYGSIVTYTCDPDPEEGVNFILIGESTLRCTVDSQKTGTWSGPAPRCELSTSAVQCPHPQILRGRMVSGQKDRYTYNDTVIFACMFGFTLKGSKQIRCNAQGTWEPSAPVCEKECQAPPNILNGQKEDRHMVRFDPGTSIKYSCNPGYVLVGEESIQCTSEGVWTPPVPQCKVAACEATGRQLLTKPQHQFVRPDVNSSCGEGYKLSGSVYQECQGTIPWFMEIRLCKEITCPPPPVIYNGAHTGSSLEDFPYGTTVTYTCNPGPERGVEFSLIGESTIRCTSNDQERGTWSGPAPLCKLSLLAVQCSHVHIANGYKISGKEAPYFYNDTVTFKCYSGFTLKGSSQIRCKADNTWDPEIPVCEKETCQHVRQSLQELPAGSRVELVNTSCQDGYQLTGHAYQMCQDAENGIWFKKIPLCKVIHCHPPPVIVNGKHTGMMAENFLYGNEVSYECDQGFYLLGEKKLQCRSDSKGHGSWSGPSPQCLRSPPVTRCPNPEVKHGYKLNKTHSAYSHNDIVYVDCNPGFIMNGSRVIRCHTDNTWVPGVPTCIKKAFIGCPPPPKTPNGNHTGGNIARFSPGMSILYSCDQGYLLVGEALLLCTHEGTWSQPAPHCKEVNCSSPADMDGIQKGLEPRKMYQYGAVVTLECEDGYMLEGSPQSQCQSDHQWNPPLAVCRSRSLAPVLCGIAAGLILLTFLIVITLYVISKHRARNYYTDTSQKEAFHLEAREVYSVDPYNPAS
UniProt P31942: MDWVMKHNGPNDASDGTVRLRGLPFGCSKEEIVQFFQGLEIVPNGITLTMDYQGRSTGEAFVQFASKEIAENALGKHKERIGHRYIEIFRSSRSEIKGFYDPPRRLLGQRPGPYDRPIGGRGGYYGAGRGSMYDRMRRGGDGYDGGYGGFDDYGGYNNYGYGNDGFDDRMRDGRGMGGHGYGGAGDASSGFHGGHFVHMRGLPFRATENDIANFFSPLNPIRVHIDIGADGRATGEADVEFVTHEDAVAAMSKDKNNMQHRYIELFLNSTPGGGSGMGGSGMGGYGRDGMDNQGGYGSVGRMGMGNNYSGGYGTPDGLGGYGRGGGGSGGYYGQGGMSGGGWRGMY
UniProt P29084: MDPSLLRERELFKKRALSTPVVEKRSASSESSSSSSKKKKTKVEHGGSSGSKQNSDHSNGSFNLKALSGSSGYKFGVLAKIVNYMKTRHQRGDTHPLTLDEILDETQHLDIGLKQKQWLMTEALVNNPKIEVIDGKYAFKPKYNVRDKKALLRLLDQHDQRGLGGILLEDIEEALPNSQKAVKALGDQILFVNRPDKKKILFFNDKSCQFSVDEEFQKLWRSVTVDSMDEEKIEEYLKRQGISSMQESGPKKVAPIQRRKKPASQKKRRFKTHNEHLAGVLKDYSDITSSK

Compound: Nc1ncnc2c1ncn2[C@@H]1O[C@H](COP(=O)(O)OP(=O)(O)OP(=O)(O)O)[C@@H](O)[C@H]1O [adenosine triphosphate]
Assay: NP40-soluble protein abundance relative to vehicle (solubility fold change) (ratio); higher = more soluble protein in presence of ATP
Outline: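 Jurkat crude lysate (Dounce-homogenised) was treated with eight concentrations from 0.1 to 10 mM for 10 min at room temperature, then 3 min at 37 °C. It was solubilised with 0.8% NP40 and benzonase (60 min, 4 °C) and ultracentrifuged, and the supernatant was TMT-labelled for LC-MS/MS. Intensities were vsn-normalised, and the value is the fold change against the NP40-processed vehicle per replicate, from three independent experiments.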

| Target | NP40-soluble protein abundance (concentration: 1mM) | NP40-soluble protein abundance (concentration: 2mM) | NP40-soluble protein abundance (concentration: 4mM) | NP40-soluble protein abundance (concentration: 6mM) | NP40-soluble protein abundance (concentration: 8mM) | NP40-soluble protein abundance (concentration: 10mM) |
| --- | --- | --- | --- | --- | --- | --- |
| OSBP (UniProt P22059) | 0.989 ± 0.021 | 0.958 ± 0.043 | 0.954 ± 0.05 | 0.957 ± 0.054 | 0.963 ± 0.043 | 0.931 ± 0.044 |
| BLVRB (UniProt P30043) | 0.952 ± 0.042 | 0.984 ± 0.043 | 0.962 ± 0.034 | 0.913 ± 0.067 | 0.951 ± 0.045 | 0.957 ± 0.034 |
| WARS (UniProt P23381) | 0.997 ± 0.077 | 0.973 ± 0.055 | 0.962 ± 0.044 | 0.917 ± 0.1 | 0.963 ± 0.044 | 0.952 ± 0.057 |
| GDI1 (UniProt P31150) | 1.02 ± 0.089 | 1.02 ± 0.081 | 1.01 ± 0.06 | 0.98 ± 0.11 | 1.01 ± 0.077 | 1 ± 0.064 |
| UniProt P20963 and related entries | 0.975 ± 0.079 | 0.95 ± 0.05 | 0.956 ± 0.013 | 0.961 ± 0.036 | 0.981 ± 0.032 | 0.884 ± 0.11 |
| BCKDHB (UniProt P21953) | 1.09 ± 0.092 | 1.1 ± 0.092 | 1.06 ± 0.035 | 1.04 ± 0.077 | 1.1 ± 0.088 | 1.06 ± 0.074 |
| UniProt P28838 and related entries | 0.959 ± 0.043 | 0.957 ± 0.04 | 0.934 ± 0.05 | 0.965 ± 0.04 | 0.945 ± 0.055 | 0.948 ± 0.054 |
| UniProt P24666 and related entries | 1.02 ± 0.09 | 0.982 ± 0.018 | 0.954 ± 0.05 | 0.969 ± 0.025 | 0.954 ± 0.019 | 0.93 ± 0.056 |
| ATP2A2 (UniProt P16615) | 1.03 ± 0.038 | 1.01 ± 0.036 | 0.99 ± 0.035 | 0.98 ± 0.062 | 1.01 ± 0.038 | 0.981 ± 0.03 |
| UniProt P31948 and related entries | 1.01 ± 0.24 | 0.943 ± 0.086 | 0.911 ± 0.2 | 0.986 ± 0.099 | 0.996 ± 0.048 | 0.823 ± 0.047 |
| RPL12 (UniProt P30050) | 0.929 ± 0.059 | 0.918 ± 0.074 | 0.88 ± 0.077 | 0.85 ± 0.075 | 0.745 ± 0.057 | 0.846 ± 0.04 |
| ZNF8 (UniProt P17098) | 1.02 ± 0.092 | 1.03 ± 0.066 | 1.01 ± 0.052 | 1.04 ± 0.06 | 1.01 ± 0.062 | 0.991 ± 0.052 |
| UniProt P20023 and related entries | 0.996 ± 0.096 | 1.02 ± 0.059 | 1.06 ± 0.057 | 1.04 ± 0.075 | 0.962 ± 0.016 | 0.965 ± 0.096 |
| UniProt P31942 and related entries | 1.03 ± 0.011 | 0.976 ± 0.065 | 0.985 ± 0.041 | 1.02 ± 0.13 | 1.03 ± 0.089 | 1.05 ± 0.091 |
| GTF2E2 (UniProt P29084) | 0.965 ± 0.047 | 0.96 ± 0.032 | 0.928 ± 0.03 | 0.976 ± 0.056 | 0.896 ± 0.024 | 0.9122 ± 0.007 |

2 successive entries already listed:

| Target | NP40-soluble protein abundance (concentration: 1mM) | NP40-soluble protein abundance (concentration: 2mM) | NP40-soluble protein abundance (concentration: 4mM) | NP40-soluble protein abundance (concentration: 6mM) | NP40-soluble protein abundance (concentration: 8mM) | NP40-soluble protein abundance (concentration: 10mM) |
| --- | --- | --- | --- | --- | --- | --- |
| BLVRB (UniProt P30043) | 0.952 ± 0.042 | 0.984 ± 0.043 | 0.962 ± 0.034 | 0.913 ± 0.067 | 0.951 ± 0.045 | 0.957 ± 0.034 |
| WARS (UniProt P23381) | 0.997 ± 0.077 | 0.973 ± 0.055 | 0.962 ± 0.044 | 0.917 ± 0.1 | 0.963 ± 0.044 | 0.952 ± 0.057 |
